Experimental data as given in PMC7343504.
Results are given in words; binding and its absence hold for the method and conditions named. In cells and extracts the contact can be indirect. Some binding calls cover weakened binding; strength is not graded here.

By UniProt entry, the sequences of proteins in these tests, tags left out.
UniProt P59941: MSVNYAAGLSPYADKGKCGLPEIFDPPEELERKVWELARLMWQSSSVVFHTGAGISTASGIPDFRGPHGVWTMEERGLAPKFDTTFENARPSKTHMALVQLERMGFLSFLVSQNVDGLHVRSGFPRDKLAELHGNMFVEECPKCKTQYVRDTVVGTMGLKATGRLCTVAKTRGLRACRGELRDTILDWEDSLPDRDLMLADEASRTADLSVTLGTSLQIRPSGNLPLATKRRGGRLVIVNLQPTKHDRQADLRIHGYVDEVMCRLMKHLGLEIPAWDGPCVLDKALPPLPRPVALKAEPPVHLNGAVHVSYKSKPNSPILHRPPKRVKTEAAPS

Biological target: SIRT6 (mouse (endogenous in MEF)) (UniProt P59941)
Assay: co-IP; cleared MEF lysate (20 mM Hepes pH 8.0, 0.2 mM EDTA, 5% glycerol, 150 mM NaCl, 1% NP40) incubated overnight with antibodies against SIRT6, protein A agarose; blot for KDM2A; before and after irradiation (IR)

binding: binds
B1: lysine demethylase JHDM1A/KDM2A (enzyme, UniProt P59997 1-1161)
chain: MEPEEERIRYSQRLRGTMRRRYEDDGISDDEIEGKRTFDLEEKLQTNKYNANFVTFMEGKDFNVEYIQRGGLRDPLIFKNSDGLGIKMPDPDFTVNDVKMCVGSRRMVDVMDVNTQKGIEMTMAQWTRYYETPEEEREKLYNVISLEFSHTRLENMVQWPSTVDFIDWVDNMWPRHLKESQTESTNAILEMQYPKVQKYCLISVRGCYTDFHVDFGGTSVWYHIHQGGKVFWLIPPTAHNLELYENWLLSGKQGDIFLGDRVSDCQRIELKQGYTFVIPSGWIHAVYTPTDTLVFGGNFLHSFNIPMQLKIYSIEDRTRVPNKFRYPFYYEMCWYVLERYVYCITNRSHLTKDFQKESLSMDMELNELESGNGDEEGVDREARRMNNKRSVLTSPVANGVNLDYDGLGKACRSLPSLKKTLSGDSSSDSTRGSHNGQVWDPQCSPKKDRQVHLTHFELEGLRCLVDKLESLPLHKKCVPTGIEDEDALIADVKILLEELASSDPKLALTGVPIVQWPKRDKLKFPTRPKVRVPTIPITKPHTMKPAPRLTPVRPAAASPIVSGARRRRVRCRKCKACVQGECGVCHYCRDMKKFGGPGRMKQSCVLRQCLAPRLPHSVTCSLCGEVDQNEETQDFEKKLMECCICNEIVHPGCLQMDGEGLLNEELPNCWECPKCYQEDSSDKAQKRKIEESDEEAVQAKVLRPLRSCEEPLTPPPHSPTSMLQLIHDPVSPRGMVTRSSPGAGPSDHHSASRDERFKRRQLLRLQATERTMVREKENNPSGKKELSEVEKAKIRGSYLTVTLQRPTKELHGTSIVPKLQAITASSANLRPNPRVLMQHCPARNPQHGDEEGLGGEEEEEEEEEEDDSAEEGGAARLNGRGSWAQDGDESWMQREVWMSVFRYLSRKELCECMRVCKTWYKWCCDKRLWTKIDLSRCKAIVPQALSGIIKRQPVSLDLSWTNISKKQLTWLVNRLPGLKDLLLAGCSWSAVSALSTSSCPLLRTLDLRWAVGIKDPQIRDLLTPPTDKPGQDNRSKLRNMTDFRLAGLDITDATLRLIIRHMPLLSRLDLSHCSHLTDQSSNLLTAVGSSTRYSLTELNMAGCNKLTDQTLFFLRRIANVTLIDLRGCKQITRKACEHFISDLSINSLYCLSDEKLIQKIS
